Record: PubChem BioAssay AID1259405 (NCATS, 2018)
Assay: 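Knock-downs that lift recombinant protein yield in hamster ovary cells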 (primary screen). Cell system: Chinese hamster CHO-K1 ovary cells with stable secreted eGFP expression. Reagent: single siRNA against mouse genes, 0.8 pmol siRNA per well (2 µl of 400 nM stock). Time to read-out: 3 days. Measured: 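Per-well intracellular GFP measured by laser scanning cytometry, plus viability from ATP luminescence, each relative to plate median of non-targeting control wells, in %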. Reading the numbers: GFP, % of control: higher = more GFP per well, higher productivity; viability (ATP), % of control: higher = more viable cells (more ATP). Call rule: 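Called active when intracellular GFP, relative to negative control, is at or above 120%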.
The deposit covers about 50,000 reagents; shown is a part drawn at random. About 4,000 of all reagents (8%) were called active. 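Mouse siRNA library applied to hamster cells; one well for each siRNA.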 Reagents against one gene are numbered here. Reagent sequences are not shown.

Against AI606181 #1, the values are GFP, % of control 64.5; viability (ATP), % of control 60.8; inactive.
With knock-down of AI606181 #2 the results were GFP, % of control 98.1; viability (ATP), % of control 87.5; inactive.
Against AI606181 #3, the values are GFP, % of control 98.2; viability (ATP), % of control 84.5; inactive.
For Slc4a9 #1 the deposit lists GFP, % of control 107; viability (ATP), % of control 77.9; inactive.
Against Slc4a9 #2 the deposit lists GFP, % of control 136; viability (ATP), % of control 102; active.
Silencing of Slc4a9 #3 resulted in: GFP, % of control 39.1; viability (ATP), % of control 60.9; inactive.
Arhgap35 #1 scored GFP, % of control 45.3; viability (ATP), % of control 43.9; inactive.
With knock-down of Arhgap35 #2, the record shows GFP, % of control 51.2; viability (ATP), % of control 51.9; inactive.
With knock-down of Arhgap35 #3 the results were GFP, % of control 86.9; viability (ATP), % of control 71.7; inactive.
Knock-down of Gpx5 #1 came out at: GFP, % of control 95.2; viability (ATP), % of control 121; inactive.
Gpx5 #2 scored GFP, % of control 74.7; viability (ATP), % of control 72; inactive.
Gpx5 #3 gave GFP, % of control 43.6; viability (ATP), % of control 44; inactive.
Against Tmprss3 #1 the deposit lists GFP, % of control 112; viability (ATP), % of control 106; inactive.
Silencing of Tmprss3 #2 gave: GFP, % of control 76.3; viability (ATP), % of control 45.3; inactive.
Tmprss3 #3 gave GFP, % of control 57.3; viability (ATP), % of control 64.2; inactive.
Knock-down of Ophn1 #1 resulted in: GFP, % of control 75.5; viability (ATP), % of control 72.7; inactive.
Depletion of Ophn1 #2 gave: GFP, % of control 196; viability (ATP), % of control 69.6; active.
With knock-down of Ophn1 #3 the results were GFP, % of control 60.3; viability (ATP), % of control 68.9; inactive.
Plxna2 showed GFP, % of control 46.9; viability (ATP), % of control 66.4; inactive.
Against Abraxas1 #1, the entry reads GFP, % of control 82.1; viability (ATP), % of control 55.9; inactive.
For Abraxas1 #2, the values are GFP, % of control 57.1; viability (ATP), % of control 38; inactive.
For Abraxas1 #3, the values are GFP, % of control 92.3; viability (ATP), % of control 114; inactive.
Against Kras #1, the values are GFP, % of control 105; viability (ATP), % of control 106; inactive.
After knock-down of Kras #2, the screen gave GFP, % of control 77.8; viability (ATP), % of control 46.5; inactive.
For Kras #3, the entry reads GFP, % of control 62.3; viability (ATP), % of control 55.2; inactive.
Against Or52s19 #1, the entry reads GFP, % of control 78.4; viability (ATP), % of control 64; inactive.
Against Or52s19 #2 the deposit lists GFP, % of control 82.4; viability (ATP), % of control 41.8; inactive.
Or52s19 #3 gave GFP, % of control 45.2; viability (ATP), % of control 82; inactive.
Klhdc3 #1 showed GFP, % of control 41.6; viability (ATP), % of control 36.9; inactive.
Klhdc3 #2 gave GFP, % of control 127; viability (ATP), % of control 88.6; active.
For Klhdc3 #3 the deposit lists GFP, % of control 32.4; viability (ATP), % of control 44.2; inactive.
With knock-down of Gin1 #1, the screen gave GFP, % of control 70.5; viability (ATP), % of control 70.2; inactive.
For Gin1 #2, the values are GFP, % of control 67.2; viability (ATP), % of control 66.3; inactive.
With knock-down of Gin1 #3 the results were GFP, % of control 89.3; viability (ATP), % of control 97.8; inactive.
With knock-down of Ppdpf #1, the record shows GFP, % of control 87.8; viability (ATP), % of control 102; inactive.
Knock-down of Ppdpf #2 came out at: GFP, % of control 17.4; viability (ATP), % of control 37.7; inactive.
Ppdpf #3 scored GFP, % of control 160; viability (ATP), % of control 147; active.
Knock-down of C2cd4c #1 gave: GFP, % of control 69.4; viability (ATP), % of control 59.4; inactive.
For C2cd4c #2, the entry reads GFP, % of control 91.1; viability (ATP), % of control 45.7; inactive.
Depletion of C2cd4c #3 came out at: GFP, % of control 87.7; viability (ATP), % of control 80.9; inactive.
After knock-down of Trmt5 #1 the results were GFP, % of control 108; viability (ATP), % of control 88.1; inactive.
With knock-down of Trmt5 #2 the results were GFP, % of control 110; viability (ATP), % of control 74.9; inactive.
With knock-down of Trmt5 #3, the screen gave GFP, % of control 89.7; viability (ATP), % of control 64.1; inactive.
For Gpcpd1 #1, the entry reads GFP, % of control 31.1; viability (ATP), % of control 45.8; inactive.
Gpcpd1 #2 scored GFP, % of control 99.1; viability (ATP), % of control 77.7; inactive.
With knock-down of Gpcpd1 #3, the screen gave GFP, % of control 73.9; viability (ATP), % of control 83.6; inactive.
After knock-down of Insl6 #1 the results were GFP, % of control 62.3; viability (ATP), % of control 49.8; inactive.
Against Insl6 #2 the deposit lists GFP, % of control 47.8; viability (ATP), % of control 38.7; inactive.
Knock-down of Insl6 #3 gave: GFP, % of control 61.9; viability (ATP), % of control 54.5; inactive.
Vmo1 #1 gave GFP, % of control 71; viability (ATP), % of control 72.3; inactive.
After knock-down of Vmo1 #2, the record shows GFP, % of control 118; viability (ATP), % of control 90.1; inactive.
Vmo1 #3 showed GFP, % of control 147; viability (ATP), % of control 102; active.

Hits, among the entries above:
Slc4a9 #2 | GFP, % of control = 136; viability (ATP), % of control = 102; call = active
Ophn1 #2 | GFP, % of control = 196; viability (ATP), % of control = 69.6; call = active
Klhdc3 #2 | GFP, % of control = 127; viability (ATP), % of control = 88.6; call = active
Ppdpf #3 | GFP, % of control = 160; viability (ATP), % of control = 147; call = active
Vmo1 #3 | GFP, % of control = 147; viability (ATP), % of control = 102; call = active
